Data: article PMC12002259
The exact form of at least one protein or probe is not confirmed. At least one verdict was read from the data and is not stated in words by the source.

Protein sequences, listed by entry. Tags and fused reporters are not part of them. Lines headed by an entry give the natural chain unless they say otherwise; changes in a name come on top.
UniProt P43351: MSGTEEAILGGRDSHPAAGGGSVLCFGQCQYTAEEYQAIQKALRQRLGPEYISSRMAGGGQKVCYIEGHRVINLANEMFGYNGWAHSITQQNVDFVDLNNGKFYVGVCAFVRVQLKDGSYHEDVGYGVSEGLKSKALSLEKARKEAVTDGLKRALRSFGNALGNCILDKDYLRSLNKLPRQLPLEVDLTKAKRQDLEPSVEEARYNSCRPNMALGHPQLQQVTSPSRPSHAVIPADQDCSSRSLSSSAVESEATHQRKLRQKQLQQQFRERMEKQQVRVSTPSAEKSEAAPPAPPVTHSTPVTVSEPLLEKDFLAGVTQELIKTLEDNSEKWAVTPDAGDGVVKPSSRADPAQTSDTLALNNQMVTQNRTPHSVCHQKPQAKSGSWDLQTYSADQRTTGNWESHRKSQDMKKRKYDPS

Biological target: RAD52 full length (human) (UniProt P43351)
Experiment: mass photometry
Conditions: 100 nM protein, 10 nM DNA, large clusters form; mass photometry: 20 mM Tris-HCl, 50 mM NaCl, pH 7.5; recombinant protein; residues 1-418; protein details: His-tag (pET-15b); single-stranded DNA

## GCAATTAAGCTCTAAGCCATCCGCAAAAATGACCTCTTATCAAAAGGA [48 nt unlabeled]
  binding result: binds
